Measured values from PMC12242688.
Results are given in words; binding and its absence hold for the method and conditions named. Some binding calls cover weakened binding; strength is not graded here. One block for each molecule: values may come before it.

Chains of the proteins cited; added tags and fusions are not shown. Lines headed by an entry give the natural chain unless they say otherwise; changes in a name come on top. A line that says so, or that is headed by a name, gives the form on record, which may keep a tag or linker. Residues count along the entry.
Recombinant His-tagged ApoE3 wild-type (source not stated for the experiment) (P02649, residues 19-317): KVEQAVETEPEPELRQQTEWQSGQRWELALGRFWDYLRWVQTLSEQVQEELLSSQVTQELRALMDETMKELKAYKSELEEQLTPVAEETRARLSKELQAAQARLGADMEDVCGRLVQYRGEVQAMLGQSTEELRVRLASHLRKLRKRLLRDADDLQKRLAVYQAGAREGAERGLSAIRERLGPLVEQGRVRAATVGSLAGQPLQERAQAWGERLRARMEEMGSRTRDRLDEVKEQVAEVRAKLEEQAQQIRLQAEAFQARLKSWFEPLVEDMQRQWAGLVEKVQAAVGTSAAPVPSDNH
Recombinant His-tagged ApoE3 Christchurch variant (source not stated for the experiment) (P02649, form named): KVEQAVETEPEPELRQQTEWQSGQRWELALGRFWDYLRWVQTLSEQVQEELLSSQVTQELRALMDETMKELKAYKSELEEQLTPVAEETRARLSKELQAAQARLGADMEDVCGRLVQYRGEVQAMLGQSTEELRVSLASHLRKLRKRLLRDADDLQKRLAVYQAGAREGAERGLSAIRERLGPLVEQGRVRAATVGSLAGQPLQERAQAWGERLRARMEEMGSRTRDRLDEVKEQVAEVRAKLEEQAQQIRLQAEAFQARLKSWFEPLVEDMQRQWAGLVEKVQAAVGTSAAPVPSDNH

What was measured:
[1] = target: T1, Recombinant human Dkk1 protein (human) (UniProt O94907); experiment: ITC; ApoE3 WT titrated to Dkk1 (higher concentrations of ApoE3 WT over time); conditions not told in what was shown; both purified
T1 sequence: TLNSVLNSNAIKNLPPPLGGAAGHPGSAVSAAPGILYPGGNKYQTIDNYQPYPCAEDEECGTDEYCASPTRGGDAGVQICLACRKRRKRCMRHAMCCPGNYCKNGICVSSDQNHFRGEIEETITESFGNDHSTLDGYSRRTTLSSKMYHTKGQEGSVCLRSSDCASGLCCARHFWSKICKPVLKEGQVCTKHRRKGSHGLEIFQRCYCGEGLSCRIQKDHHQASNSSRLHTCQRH

[2] = target: Recombinant His-tagged ApoE3 wild-type (source not stated for the experiment) (human) (UniProt P02649); experiment: pull-down; recombinant human Dkk1 and His-tagged ApoE3 variants mixed in binding buffer, Ni-NTA magnetic beads overnight at 4°C, washed thrice with 40 mM imidazole, eluted; Western blot; both purified
[3] = target: Recombinant His-tagged ApoE3 Christchurch variant (source not stated for the experiment) (human) (UniProt P02649); experiment: as above

binding [1]: binds weakly
Molecule: Recombinant His-tagged ApoE3 wild-type (source not stated for the experiment) (from UniProt P02649 19-317)

binding [2]: binds weakly | binding [3]: binds weakly
B1: Recombinant human Dkk1 protein (protein, UniProt O94907 32-266)
chain: T1 sequence
